# According to PubChem BioAssay AID504467 (National Center for Advancing Translational Sciences (NCATS), 2011):
# The campaign covered roughly 330,000 compounds. About 7,700 (2.3%) were called active. This list was built around the results that the source calls inconclusive (neither active nor inactive); the mix of calls is not that of the screen. The call rests on the fitted dose curve; in most records, active means well fitted inhibition curve with a large enough effect; inconclusive means small, poorly fitted or top-dose-only effect, or effect the other way; inactive means flat fitted curve, though single readings scatter. Potencies of inconclusive entries are doubtful fits and often do not repeat.
# Test: qHTS screen for small molecules that inhibit ELG1-dependent DNA repair in human embryonic kidney (HEK293T) cells expressing luciferase-tagged ELG1; further: nearly all actives have a fitted effect of over 55% in size
# Details: HEK293T ELG1-luciferase reporter, luminescence, 16 h, DNA damage induced by 5-fluorouridine; activity change, negative = inhibition: at 46.1 µM (top of the series)
# How it was run: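 Step one: seed 2,000 cells per well. Step two: pin-transfer compound or DMSO alongside 5-fluorouridine. Step three: incubate 16 hr, 37 °C, 5% CO2. Step four: add ONE-Glo, wait 30 min, read luminescence.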
# On the % scale 0 is the no-effect control and ±100 the full control effect; potency means the concentration at half of the fitted maximal effect.
Structure (SMILES),Potency,"activity change, negative = inhibition"
O=C(O)Cn1c(-c2ccccn2)nc2ccccc21,"inconclusive: 20.6 µM [activator, partial curve, poor fit]",
COc1ccc(-c2cc3c(=O)n(CC(=O)NCCN4CCCC4)nc(C)n3n2)cc1,"inconclusive: 16.4 µM [activator, single point]",
COC(=O)c1ccc(CSc2nc(N)cc(N)n2)cc1,"inconclusive: 23.1 µM [activator, partial curve]",
CCC(=O)N1CCc2cc(OC)c(OC)cc2C1COc1ccc(F)cc1 (stereo not given),"inconclusive: 23.1 µM [inhibitor, single point]",
Cc1ccc(NC(=O)NCCCc2ccccc2)cc1,"inconclusive: 1.84 µM [activator, partial curve, poor fit]",
Cc1ccc(/C=C/C(=O)c2ccccc(=O)c2O)cc1C,active: 20.6 µM,
COc1ccc(CC(=O)Nc2nnc(C(C)C)s2)cc1,,inactive: -9.81%
COc1ccc(Br)cc1CN(C)C(=O)C1CC(=O)N(C2CCCC2)C1 (stereo not given),,inactive: -4.6%
Cc1ccc(NC(=O)CSc2ncc(-c3ccccc3)n2C(=O)c2ccccc2)cc1,"inconclusive: 2.59 µM [activator, full curve]",
Cc1ccc(Nc2cc(-n3nc(C)cc3C)ncn2)c(C)c1,"inconclusive: 35.5 µM [inhibitor, single point]",
Cc1cc2nc(C3CCN(Cc4nnnn4Cc4cccs4)CC3)[nH]c2cc1C,,inactive: -2.56%
Cc1ccc(S(=O)(=O)Oc2ccc3c(c2)O/C(=C\c2cccnc2)C3=O)cc1,,inactive: -6.54%
O=C(Nc1cnn(Cc2ccc(Cl)cc2Cl)c1)c1noc2c1CCCC2,"inconclusive: 25.9 µM [inhibitor, single point]",
Cc1ccc(C2(C)NC(=O)N(CC(=O)c3ccc(Cl)s3)C2=O)cc1 (stereo not given),,inactive: 1.39%
Cn1nnnc1NCc1ccccc1F,,inactive: -0.12%
COc1ccc(NC(=O)c2ccco2)cc1NC(=O)c1cc2ccccc2o1,"inconclusive: 18.4 µM [inhibitor, single point]",
CCOC(=O)c1cccc(-c2ccc(C=O)o2)c1,"inconclusive: 18.4 µM [activator, single point]",
O=C(CSc1nn(-c2ccc(F)cc2)c(=S)s1)NC(=O)NCc1ccco1,"inconclusive: 35.5 µM [inhibitor, single point]",
CC(C)(C)N1CC(COc2ccccc2)OC1=O (stereo not given),"inconclusive: 23.1 µM [activator, single point]",
CCOC(=O)c1sc(NC(=O)CSc2n[nH]c(C)n2)nc1C,"inconclusive: 3.66 µM [activator, full curve, poor fit]",
CNC(=O)COC(=O)c1ccccc1C(=O)c1ccc(Cl)c([N+](=O)[O-])c1,"inconclusive: 29.1 µM [inhibitor, single point]",
COC(=O)c1cc(OC)c(OC)cc1NC(=O)c1ccco1,active: 23.1 µM,
CCN1CCN(c2ncc3c(n2)CC(c2ccc(OC)c(OC)c2)CC3=O)CC1 (stereo not given),"inconclusive: 23.1 µM [inhibitor, single point]",
CSc1cccc(NC(=O)C2CC(=O)N(Cc3ccccc3)C2)c1 (stereo not given),,inactive: 14.8%

# Three compounds already listed, sorted by number of heavy atoms, largest number first:
Structure (SMILES),Potency,"activity change, negative = inhibition"
Cc1ccc(S(=O)(=O)Oc2ccc3c(c2)O/C(=C\c2cccnc2)C3=O)cc1,,inactive: -6.54%
COc1ccc(Br)cc1CN(C)C(=O)C1CC(=O)N(C2CCCC2)C1 (stereo not given),,inactive: -4.6%
Cn1nnnc1NCc1ccccc1F,,inactive: -0.12%

# More entries

Structure (SMILES),Potency,"activity change, negative = inhibition"
Cc1ccc(CSCCNC(=O)c2cccc([N+](=O)[O-])c2)cc1,"inconclusive: 29.1 µM [inhibitor, partial curve, poor fit]",
Cc1cccc(NC(=S)NNC(=O)COc2ccc(Cl)cc2Cl)c1,"inconclusive: 20.6 µM [activator, partial curve, poor fit]",
COc1cc(C2NC(=O)NC(C)=C2C(=O)OCc2ccc(C)cc2)cc(OC)c1O (stereo not given),,inactive: -20.3%
COc1cc(/C=N/NC(=O)CSCc2ccc([N+](=O)[O-])cc2)cc(OC)c1OC,"inconclusive: 20.6 µM [inhibitor, single point]",
O=C(NCCc1ccc(F)cc1)c1cccs1,"inconclusive: 13 µM [activator, partial curve]",
COc1ccccc1C(=O)N(Cc1ccc(Cl)cc1)C1CCS(=O)(=O)C1 (stereo not given),,inactive: -6.62%
O=C(COC(=O)CNC(=O)C1CCCCC1)Nc1ccc(Cl)cc1F,,inactive: 5.39%
C[C@H](CO)N1C[C@H](C)[C@@H](CN(C)Cc2ccccc2)Oc2c(NS(=O)(=O)c3cn(C)cn3)cccc2C1=O,"inconclusive: 14.6 µM [activator, partial curve, poor fit]",
COc1ccc(-c2ccc(SCC(=O)c3cccs3)nn2)cc1,"inconclusive: 20.6 µM [activator, partial curve]",
COc1cc2c(cc1OC)CN(c1ccc(F)cc1[N+](=O)[O-])CC2,"inconclusive: 18.3 µM [activator, partial curve, poor fit]",
O=C(Cc1ccccc1)NCC(=O)OCC(=O)c1ccc(F)cc1,,inactive: -5.29%
COCCn1c(COc2ccc(C)cc2)nc2ccccc21,"inconclusive: 18.4 µM [activator, partial curve, poor fit]",
O=C(CNC(=O)c1cnccc1C(F)(F)F)c1cccc(Cl)c1,,inactive: 17.4%
CCC(C)[C@H]1COCCS(=O)(=O)N1Cc1ccc(Cl)cc1Cl (stereo not given in full),,inactive: -2.28%
COc1ccc(N2CSC3=C(C#N)C(c4cccc(OC)c4OC)CC(=O)N3C2)cc1 (stereo not given),"inconclusive: 23.1 µM [activator, partial curve, poor fit]",
CCC(CC)NC(=O)CSc1ccc(S(=O)(=O)N2CCCCC2)cn1,,inactive: 13.7%
Cc1ccc(C)c(C(=O)N(Cc2nc(-c3ccc(Cl)cc3)no2)C(C)C)c1,active: 20.6 µM,
COCCOC(=O)c1c(C)n(C)c2ccc(OC(=O)c3ccccc3F)cc12,,inactive: 24.6%
COc1cc([N+](=O)[O-])ccc1NC(=S)Nc1cc(C(=O)OC(C)C)cc(C(=O)OC(C)C)c1,"inconclusive: 29.1 µM [inhibitor, single point]",
O=C(c1ccc(CS(=O)c2cccc(Cl)c2)o1)N1CCN(c2ccccn2)CC1 (stereo not given),"inconclusive: 23.1 µM [inhibitor, single point]",
O=C(NCCc1ccc([N+](=O)[O-])cc1)c1ccccc1,"inconclusive: 9.2 µM [activator, partial curve, poor fit]",
O=C(Nc1cccc([N+](=O)[O-])c1)c1ccc2c(c1)OCCO2,"inconclusive: 4.61 µM [activator, full curve]",
COc1cccc(-c2ccc(-c3noc(-c4ccccc4F)n3)c(OC)n2)c1,"inconclusive: 11.2 µM [activator, single point]",
COc1ccc(CCNC(=O)c2sc3nc4n(c(=O)c3c2C)CCC4)cc1,"inconclusive: 4.61 µM [inhibitor, single point]",

Structure (SMILES),Potency,"activity change, negative = inhibition"
Cc1cc(C(=O)NCC2CCCO2)sc1C (stereo not given),"inconclusive: 18.3 µM [activator, partial curve, poor fit]",
Cc1ccc(-c2nc3c4ccccc4ccn3c2CN2CCCCC2)cc1,,inactive: 9.33%
CCCc1nc(SCc2ccccn2)c2c(=O)n(C)c(=O)n(C)c2n1,"inconclusive: 18.4 µM [inhibitor, partial curve, poor fit]",
CCn1c(SCC(=O)N2c3ccccc3Sc3ccccc32)nc2c1c(=O)n(C)c(=O)n2C,,inactive: 14.7%
Cc1ccc(C(=O)Nc2cccc(-c3ccc(N4CCOCC4)nn3)c2)cc1,"inconclusive: 1.3 µM [activator, single point]",
COC(=O)c1noc(-c2ccc(C)cc2)n1,"inconclusive: 29.1 µM [activator, partial curve, poor fit]",
COc1ccc(NC(=O)Cn2nc(Cc3cccnc3)c3ccccc3c2=O)cc1OC,"inconclusive: 29.1 µM [activator, single point]",
COc1ccc(C(=O)NCc2ccc3c(c2)OCO3)cc1S(=O)(=O)NCc1ccc(Cl)cc1,"inconclusive: 18.4 µM [inhibitor, partial curve]",
O=C(CSc1nc2ccc(NC(=O)CSc3nnnn3Cc3ccccc3)cc2s1)Nc1ccccc1,active: 4.61 µM,
CO/C([O-])=N/c1c[n+](-c2ccc(C)cc2)no1,"inconclusive: 23.1 µM [activator, single point]",
CSC(=NC#N)N1CCN(c2c(C)cccc2C)CC1,,inactive: -1.24%
O=C(N/N=C/c1cccnc1)c1cc(-c2ccccc2Cl)nc2ccccc12,,inactive: -8.48%
Cc1c(C(=O)NCc2ccccc2Cl)oc2c1C(=O)CCC2,,inactive: 12.7%
O=C(CSc1nc2[nH]ncc2c(=O)[nH]1)Nc1cccc([N+](=O)[O-])c1,"inconclusive: 16.4 µM [activator, partial curve, poor fit]",
CC1CCCN(Cc2nc3c(c(=O)n(C)c(=O)n3C)n2CCCc2ccccc2)C1 (stereo not given),"inconclusive: 18.4 µM [inhibitor, single point]",
CCCCC(=O)Nc1nc(C)c(-c2csc(Nc3cc(Cl)ccc3OC)n2)s1,"inconclusive: 10.3 µM [inhibitor, partial curve]",
CCCCOC(=O)c1ccc(NC(=O)C(=O)NCc2ccncc2)cc1,"inconclusive: 25.9 µM [inhibitor, partial curve, poor fit]",
COc1ccc(S(=O)(=O)N2CCN(Cc3ccccc3)CC2)cc1,"inconclusive: 29.1 µM [inhibitor, partial curve, poor fit]",
O=C(COc1ccccc1)N(CCc1ccccc1)c1nc(-c2ccc(F)cc2)cs1,"inconclusive: 32.6 µM [activator, partial curve, poor fit]",
C[C@@H](CN=[N+]=[N-])CN1CC[C@H](O)CCC1=O,,inactive: -4.12%
CC1(C)C(C=C(Cl)Cl)C1C(=O)N1CCN(c2ccccc2)CC1 (stereo not given),"inconclusive: 18.4 µM [inhibitor, partial curve]",
COc1ccc(-c2csc(-n3cccn3)n2)cc1,"inconclusive: 9.2 µM [activator, partial curve]",
